For at least one entry, the source does not settle the construct or the ends of the probe. A negative result means that nothing was seen under these conditions.
system: human lactate dehydrogenase (hLDH) (Homo sapiens); test: EMSA; settings: 1000 nM hLDH; EMSA: 25 nM strand, 0-2500 nM PfLDH (tetramer concentration in legends; text says Kd per subunit), 25 mM Tris-HCl pH 7.5, 100 mM NaCl, 20 mM imidazole, 25 C 1 h; recombinant protein; single-stranded DNA

| Sequence | binding result |
| --- | --- |
| AGAGGCATAATTTCATCTTCTGACTATAACTATTTTTTTTTTTTTTTTTTTTCTGGGCGGTAGAACCATAGTGACCCAGCCGTCTAC [aptamer staple 89] | no binding |
| CCGGAAACACACCACGGAATAAGTAAGACTCCTTTTTTTTTTTTTTTTTTTTCTGGGCGGTAGAACCATAGTGACCCAGCCGTCTAC [aptamer staple 81] | no binding |
| CGGAATTATTGAAAGGAATTGAGGTGAAAAATTTTTTTTTTTTTTTTTTTTTCTGGGCGGTAGAACCATAGTGACCCAGCCGTCTAC [aptamer staple 95] | no binding |
| CTAAAGCAAGATAGAACCCTTCTGAATCGTCTTTTTTTTTTTTTTTTTTTTTCTGGGCGGTAGAACCATAGTGACCCAGCCGTCTAC [aptamer staple 97] | no binding |
| CTTTACAGTTAGCGAACCTCCCGACGTAGGAATTTTTTTTTTTTTTTTTTTTCTGGGCGGTAGAACCATAGTGACCCAGCCGTCTAC [aptamer staple 85] | no binding |
| GAGCAAAAACTTCTGAATAATGGAAGAAGGAGTTTTTTTTTTTTTTTTTTTTCTGGGCGGTAGAACCATAGTGACCCAGCCGTCTAC [aptamer staple 93] | no binding |
| TATCACCGTACTCAGGAGGTTTAGCGGGGTTTTTTTTTTTTTTTTTTTTTTTCTGGGCGGTAGAACCATAGTGACCCAGCCGTCTAC [aptamer staple 76] | no binding |
| TATGTAAACCTTTTTTAATGGAAAAATTACCTTTTTTTTTTTTTTTTTTTTTCTGGGCGGTAGAACCATAGTGACCCAGCCGTCTAC [aptamer staple 91] | no binding |
| TCATTACCCGACAATAAACAACATATTTAGGCTTTTTTTTTTTTTTTTTTTTCTGGGCGGTAGAACCATAGTGACCCAGCCGTCTAC [aptamer staple 87] | no binding |
| TGAGGCAGGCGTCAGACTGTAGCGTAGCAAGGTTTTTTTTTTTTTTTTTTTTCTGGGCGGTAGAACCATAGTGACCCAGCCGTCTAC [aptamer staple 79] | no binding |
| TGCTCAGTCAGTCTCTGAATTTACCAGGAGGTTTTTTTTTTTTTTTTTTTTTCTGGGCGGTAGAACCATAGTGACCCAGCCGTCTAC [aptamer staple 77] | no binding |
| TTATTACGGTCAGAGGGTAATTGAATAGCAGCTTTTTTTTTTTTTTTTTTTTCTGGGCGGTAGAACCATAGTGACCCAGCCGTCTAC [aptamer staple 83] | no binding |
